Source: PubChem BioAssay AID1159506 (NCATS, 2015).

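Genome-wide siRNA knockdown in TC32 Ewing sarcoma cells, comparing luciferase light from an NR0B1-promoter reporter with a CMV-promoter reporter 48 hours after transfection. Each siRNA was applied at 20 nM. A z-score of the log NR0B1-over-CMV signal, less the median of siRNAs with the same seed; more negative means a stronger specific loss of the NR0B1 reporter.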

The strongest results of the screen are mostly left out here. Sequences are the guide (antisense) strand, without overhang.

Result for UGACAUACGAGCAUAUACC against RANBP17 was seed-corrected z-score 1.078. For UUCUAAUGCAGCUUUACGG against CELF1 the result was seed-corrected z-score 0.9728. Result for UGUUCGAUAAGUGCUGAGC against ZNF135 was seed-corrected z-score -0.1146. Result for AAGGUGUUGAGGGAGCUGC against TBCB was seed-corrected z-score -0.3344. With UCAGAUAUGGAGAACAGGC against MRO the assay gave seed-corrected z-score 0.263. UGUCUGGUUAAUCUCACCC against OR13C3 gave seed-corrected z-score 0.6916.

Result for UCGCUGAUUCGAGAUGUCG against SPIN1 was seed-corrected z-score 0.6949. Result for UCCUGGGCUAUGGAAAGGG against RBP3 was seed-corrected z-score -0.3548. UGUCCUCAAAUAGCCCUAC against HIST1H3A read seed-corrected z-score 0.2084. GAACGUUGCGCAACCUCUC against HIST3H3 read seed-corrected z-score 0.0947. With ACAUCGAUAAUUUAGCAUC against C5orf51 the assay gave seed-corrected z-score -0.5188. UCAAUGCAUAGUGUGAGCU against KRTAP2-2 gave seed-corrected z-score 0.5117.

Result for AAUGGUUAGACCAUAACUG against CYP1B1 was seed-corrected z-score 0.2145. UCUUUUGCGACAUACCGGC against LVRN gave seed-corrected z-score -0.9568. For UGUAUUGAUGGAGACAUUC against TES the result was seed-corrected z-score 1.15. With AUAGGGACCCACGUACUGC against TPO the assay gave seed-corrected z-score -0.2098. For UUUGAUCCAACUCUCAGUC against TRPM8 the result was seed-corrected z-score -0.7478. UCGUUGAUAACCUGCUUGC against FLII gave seed-corrected z-score -1.136.

For UCUUUGUAAAUUUACAACU against UNC119 the result was seed-corrected z-score 0.529. UUGGAGAUGAAGCCGUUCC against CALN1 read seed-corrected z-score 0.5194. AAUCGUUUGAGUUGGAUAG against USP9Y read seed-corrected z-score -0.5426. UCCAUAAUAAGCCUCUUCG against MAGEF1 read seed-corrected z-score -0.3391. UCCUUCGUCACAUUCACGG against CUL1 read seed-corrected z-score 0.3699. UCUAGAGAGAAGAUAGUGG against IFNE gave seed-corrected z-score -0.1257.

With UCAACUUAUAACGAUGUUC against CNTN3 the assay gave seed-corrected z-score 0.05809. UUUUCGAACUCUAACAGAC against RAB3GAP1 read seed-corrected z-score 1.143. With UAUCUUCAAUGAGGGUUGC against TRPC4AP the assay gave seed-corrected z-score 0.24. AAAUGGAUGUAUACGAGCC against TROVE2 read seed-corrected z-score 1.195. With AUGGAUGUGAGUACGACAC against PTCH2 the assay gave seed-corrected z-score 0.3094. Result for UUUAUUAAGAGAAUGUUAG against PAGE5 was seed-corrected z-score 0.5845.

Result for AACCCUAUAAGGAAGACAG against OPN1SW was seed-corrected z-score -0.2252. Result for UCCAGGAUACAAGAGGUGC against MAGEA1 was seed-corrected z-score 0.04835. UGGUGGUUUAUGUUCUUCG against STAC read seed-corrected z-score -0.596. Result for AUAUUUGAGACUUGAAUCU against TRIOBP was seed-corrected z-score -0.7013. For AUUACUCAACUCAUUGUCC against TRMT2A the result was seed-corrected z-score -0.6489. For AUAGUACACCCGGUCGUUG against NIP7 the result was seed-corrected z-score -0.6712.

For UUUCGGCUGAUUCUCACUG against TAF3 the result was seed-corrected z-score 0.1571. With UACAGUUCAAGUCACAAUU against LOC647859 the assay gave seed-corrected z-score 1.648. UUGGAAUCUGGAGUCGUAC against ZNF521 read seed-corrected z-score -0.3242. UGACUAAACAGUGCAUUGC against PPP1R3E read seed-corrected z-score -0.2498. AAUAUAUCUGGUACACUUC against ASPA read seed-corrected z-score -0.3425. For UUCAAGUCUGAGAUGCUCC against C1orf115 the result was seed-corrected z-score -0.6771.

For UUACUGUAAAUGAUUUCUC against LACTB2 the result was seed-corrected z-score 1.109. Result for UGAGGAAUGUGACGUAGCG against RNF222 was seed-corrected z-score 0.2337. UCAUUAGACACUGUUAGGG against CAPZA2 read seed-corrected z-score -0.006332. Result for UUAGCACGUAGGCAUAUUC against METTL1 was seed-corrected z-score 1.532. With UAUUGCAACACUCUGCUCA against LOC390282 the assay gave seed-corrected z-score 0.1489. Result for AAAAACCCUACGUUGUAGC against RPS2P20 was seed-corrected z-score 2.34.

Some entries from above, unchanged:

| siRNA | target gene | seed-corrected z-score |
|---|---|---|
| `UUCAAGUCUGAGAUGCUCC` | C1orf115 | -0.6771 |
| `UGACAUACGAGCAUAUACC` | RANBP17 | 1.078 |
| `AAAAACCCUACGUUGUAGC` | RPS2P20 | 2.34 |